Tested on: JmjC demethylases and related 2OG oxygenases
Test: Screen across the 2OG oxygenase panel
Format: biochemical, human
Conditions: % inhibition of the enzyme at 20 μM compound, AlphaScreen; described in words

- inhibition across the panel (heatmap, in words): inhibited several histone demethylases
SMILES: O=C(CCCCCCC(=O)Nc1ccccc1)NO [compound 15, suberoylanilide hydroxamic acid]

Reference: paper PMC4673902 (Journal of medicinal chemistry, 2012)
